# Assay results as given in the supplement of paper PMC4604168 (melanoma cell lines).
# Some of the results follow. Repeats are few or missing, and single values can be far off.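 Imaging used 1,536-well plates; nuclei positive for cleaved PARP by antibody were divided by total DNA-stained nuclei to yield the apoptosis fraction. Doses for screening kept most cells viable, and cell lines differ markedly in resting and induced cleaved-PARP levels.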
# Experiments:
# Test in all cases: cleaved PARP positive nuclei fraction relative to DMSO control; melanoma cells; higher = more apoptosis
# Conditions in all cases: library dose: low library concentration; 72 h
# [1] = tested on: MZ2-MEL
# [2] = tested on: MeWo
# [3] = tested on: RPMI7951
# [4] = tested on: RVH-421
# [5] = tested on: SkMel28
# [6] = tested on: SkMel2
# [7] = tested on: SkMel30
# [8] = tested on: SkMel5
# [9] = tested on: UACC257
# [10] = tested on: UACC62
# [11] = tested on: WM115
# [12] = tested on: WM1716
# [13] = tested on: WM1745
# [14] = tested on: WM3526
# [15] = tested on: WM3619
# [16] = tested on: WM451Lu
SMILES,cleaved PARP positive nuclei fraction [1] [%],cleaved PARP positive nuclei fraction [2] [%],cleaved PARP positive nuclei fraction [3] [%],cleaved PARP positive nuclei fraction [4] [%],cleaved PARP positive nuclei fraction [5] [%],cleaved PARP positive nuclei fraction [6] [%],cleaved PARP positive nuclei fraction [7] [%],cleaved PARP positive nuclei fraction [8] [%],cleaved PARP positive nuclei fraction [9] [%],cleaved PARP positive nuclei fraction [10] [%],cleaved PARP positive nuclei fraction [11] [%],cleaved PARP positive nuclei fraction [12] [%],cleaved PARP positive nuclei fraction [13] [%],cleaved PARP positive nuclei fraction [14] [%],cleaved PARP positive nuclei fraction [15] [%],cleaved PARP positive nuclei fraction [16] [%]
"CS(=O)(=O)CCNCc1ccc(-c2ccc3ncnc(Nc4ccc(OCc5cccc(F)c5)c(Cl)c4)c3c2)o1 [lapatinib] + COc1ccc(COc2ccc(Cc3cnc(N)nc3N)cc2OC)cc1 [GW2580] (first compound 0.8 µM, partner dose 1 µM)",136,61,159,197,106,39.2,89.1,72.3,65.8,132,86.5,61,99.4,270,81.6,139
"Nc1nc(F)nc2c1ncn2[C@@H]1O[C@H](CO)[C@@H](O)[C@@H]1O [fludarabine] + O=C(Nc1ccccc1)c1cc([N+](=O)[O-])ccc1Cl [GW9662] (first compound 0.2 µM, partner dose 2 µM)",66.6,472,124,26.7,158,470,182,297,147,97.6,79.8,155,79.9,764,83.2,448
"Cn1c(=O)n(-c2ccc(C(C)(C)C#N)cc2)c2c3cc(-c4cnc5ccccc5c4)ccc3ncc21 + O=C(Nc1ccccc1)c1cc([N+](=O)[O-])ccc1Cl [GW9662] (first compound 0.004 µM, partner dose 2 µM)",97.8,22.8,55.1,85.4,170,73.1,25.4,195,313,120,39.7,56.9,86.2,47.3,111,66
"Nc1ccn([C@@H]2O[C@H](CO)[C@@H](O)C2(F)F)c(=O)n1 [gemcitabine] + CC1(C)NC(=O)N(c2ccc([N+](=O)[O-])c(C(F)(F)F)c2)C1=O [nilutamide] (first compound 0.0004 µM, partner dose 1 µM)",87.5,42.3,51,164,28.7,92.3,54.7,239,83.8,145,71.9,175,114,49.5,122,16.6
"C[C@@H](Oc1cc(-c2cnn(C3CCNCC3)c2)cnc1N)c1c(Cl)ccc(F)c1Cl [Crizotinib] + c1cc(-c2cnn3cc(-c4ccc(OCCN5CCCCC5)cc4)cnc23)ccn1 [Dorsomorphin] (first compound 0.2 µM, partner dose 0.4 µM)",73.9,30,224,154,55.2,83.3,24.6,99.1,181,287,204,47.8,124,171,85.4,73.9
"C=C(c1ccc(C(=O)O)cc1)c1cc2c(cc1C)C(C)(C)CCC2(C)C [Bexarotene] + NCC(=O)Nc1ccc(-n2nc(C(F)(F)F)cc2-c2ccc3c(ccc4ccccc43)c2)cc1 [OSU03012] (first compound 2 µM, partner dose 1 µM)",191,81.3,156,32,263,214,145,99,205,182,29.5,91.7,96.1,109,92.2,298
"Nc1ccn([C@@H]2O[C@H](CO)[C@@H](O)C2(F)F)c(=O)n1 [gemcitabine] + CCCCCCCCCCCC1=C(O)C(=O)C=C(O)C1=O [Embelin] (first compound 0.0004 µM, partner dose 1.2 µM)",89.3,64.2,121,161,73.3,51.8,21.2,158,94.1,78,142,41.9,116,58.3,101,39
"O=C(O)c1ccc2c(c1)nc(Nc1cccc(Cl)c1)c1ccncc12 + O=C(O)C(=O)Nc1sc2c(c1C(=O)O)CCNC2 [TCS401] (first compound 0.4 µM, partner dose 1.66667 µM)",113,49.6,67.5,49.6,105,79.1,21.3,71.1,139,76.2,81.9,113,97.6,41.1,86.6,50.5
"CCCS(=O)(=O)Nc1ccc(F)c(C(=O)c2c[nH]c3ncc(Cl)cc23)c1F + Cc1cc([N+](=O)[O-])ccc1NS(=O)(=O)c1cc(Cl)ccc1Cl [FH535] (first compound 0.08 µM, partner dose 1 µM)",79.2,23.7,194,44.7,301,77.6,85.6,80.2,57.1,397,174,46.3,97.8,110,128,35.4
"C=C(c1ccc(C(=O)O)cc1)c1cc2c(cc1C)C(C)(C)CCC2(C)C [Bexarotene] + O=C1NC(=O)/C(=C/c2ccc(-c3ccc(F)cc3O)o2)S1 [AS252424] (first compound 2 µM, partner dose 1 µM)",172,66.4,112,205,214,82.6,115,162,91.5,121,106,78.7,94.2,77.1,204,191
"C=C(c1ccc(C(=O)O)cc1)c1cc2c(cc1C)C(C)(C)CCC2(C)C [Bexarotene] + Cc1ccc(NC(=O)c2cccc(N(C)C)c2)cc1NC(=O)c1ccc(O)cc1 [ZM336372] (first compound 2 µM, partner dose 2 µM)",152,110,84.1,131,53.8,81.7,73.3,169,101,95.9,111,28.2,103,61.4,112,120
"Cc1cc(Nc2cc(N3CCN(C)CC3)nc(/C=C/c3ccccc3)n2)n[nH]1 + COc1ccc(-c2ccc3c(N4CCOCC4)nc(N4C[C@@H](C)O[C@@H](C)C4)nc3n2)cc1CO [KU0063794] (first compound 0.04 µM, partner dose 0.02 µM)",154,220,41.3,82.2,271,44.9,42,84.7,83.8,106,237,58.2,99.4,78.4,112,65.5
"CC(C)C[C@H](NC(=O)[C@H](Cc1ccccc1)NC(=O)c1cnccn1)B(O)O [Bortezomib] + Oc1nc(-c2ccc(C(F)(F)F)cc2)nc2c1CSCC2 [XAV939] (first compound 0.001 µM, partner dose 2 µM)",123,125,241,213,92.3,77,58.9,1020,37.8,87,75,354,94.8,150,108,72.6
"O=C(O)[C@@H]1[O][Sb](=[O])([O][Sb]2(=[O])[O][C@H]([C@H](O)CO)[C@H](O)[C@H](C(=O)O)[O]2)[O][C@H]([C@H](O)CO)[C@@H]1O (stereo partly drawn) [stibogluconate] + O=c1cc(-c2cccc3c2Sc2ccccc2S3)oc(N2CCOCC2)c1 [KU55933] (first compound 2 µM, partner dose 1 µM)",160,63.4,30.1,17.4,52,127,78.8,83.3,126,91.2,257,59.9,91.3,81.8,111,62.4
"CCCS(=O)(=O)Nc1ccc(F)c(C(=O)c2c[nH]c3ncc(Cl)cc23)c1F + CC1(C)NC(=O)N(c2ccc([N+](=O)[O-])c(C(F)(F)F)c2)C1=O [nilutamide] (first compound 0.08 µM, partner dose 1 µM)",36.3,46.4,178,336,91.7,115,66,40.8,106,873,98.3,22.3,93.9,146,84.6,54.5
"CC(C)C[C@H](NC(=O)[C@H](Cc1ccccc1)NC(=O)c1cnccn1)B(O)O [Bortezomib] + O=C(Nc1ccccc1)c1cc([N+](=O)[O-])ccc1Cl [GW9662] (first compound 0.001 µM, partner dose 2 µM)",204,70,62.9,101,172,67.9,111,80.7,255,134,280,2340,150,160,239,37.9
"C=C(c1ccc(C(=O)O)cc1)c1cc2c(cc1C)C(C)(C)CCC2(C)C [Bexarotene] + COc1ccc(-c2ccc3c(N4CCOCC4)nc(N4C[C@@H](C)O[C@@H](C)C4)nc3n2)cc1CO [KU0063794] (first compound 2 µM, partner dose 0.02 µM)",114,125,250,74.8,230,55.5,170,176,153,110,157,119,105,77.8,102,77
"O=C(O)[C@@H]1[O][Sb](=[O])([O][Sb]2(=[O])[O][C@H]([C@H](O)CO)[C@H](O)[C@H](C(=O)O)[O]2)[O][C@H]([C@H](O)CO)[C@@H]1O (stereo partly drawn) [stibogluconate] + NC(=O)Nc1cc(-c2cccc(F)c2)sc1C(=O)N[C@H]1CCCNC1 [AZD7762] (first compound 2 µM, partner dose 0.02 µM)",137,98.2,41.5,136,163,110,65.3,60.1,51.6,130,109,241,181,109,119,84.6
